For at least one compound, name, drawing or mass did not settle the structure.
How the values were obtained:
[1] = tested on: CT26 colon carcinoma tumor; experiment: Example 7: SYN-115 dose range as single agent in the CT26 tumor mouse model (tumor area, survival); type: in vivo, BALB/c mice; settings: low dose (3 mg/kg-10 mg/kg) vs high dose (100 mg/kg)
Method: The BALB/c mouse colon carcinoma cell line CT26 was cultured in RPMI supplemented with 10% FCS, GlutaMAX, and penicillin/streptomycin. Tumor cells are periodically verified to be Mycoplasma negative by the Victorian Infectious Diseases References Lab (Melbourne, VIC, Australia) by PCR analysis. 1×10^5 cells were resuspended in PBS and injected s.c. into BALB/c mice in a 100 μL volume. At day 7 tumors were measured and mice were randomized into distinct treatment groups to ensure that each group had tumors of similar size at the onset of treatment. Mice were treated with SYN-115 (Batch 71236AA006) at the indicated dose or vehicle control once-daily via oral gavage on days 7 to 20. To calculate a dose of SYN-115 mouse weight was estimated to be 20 g per mouse. Therefore, 100 mg/kg=2 mg per mouse in 200 μL, which is equivalent to 10 mg/ml. To make up 40 mL, 400 milligrams of SYN-115 was weighed and added into a Falcon tube, then 1 mL of Tween 80 was added and mixed into a paste and then 39 mL of 1% Methyl Cellulose was added. The solution was vortexed and then left on a rotating mixer for at least 2 hours and maintained at 4° C. Tumor measurements were taken 2-3 times per week. Tumor sizes were determined by width * length and mice were culled when tumors reached the ethical limit of 150 mm^2.

[2] = tested on: CT26 colon carcinoma tumor; experiment: Example 5: anti-tumor responses of SYN-115 in the CT26 tumor mouse model (tumor area, survival); type: in vivo, BALB/c mice; settings: SYN-115 at 30 mg/kg, single agent and in combination with anti-PD-1

## COc1ccc(N2CCOCC2)c2sc(NC(=O)N3CCC(C)(O)CC3)nc12 [SYN-115, 4-hydroxy-4-methyl-piperidine-1-carboxylic acid (4-methoxy-7-morpholin-4-yl-benzothiazol-2-yl)-amide]
[1]
  Survival of mice: clear distinction in the survival
[2]
  Survival: long-term survival of a proportion of mice

Source: patent US20220088024A1, “METHODS FOR TREATING CANCER USING TOZADENANT” (Biotie Therapies, Inc., priority 2018, published 2022)
